Where a name gives a salt, the structure may show the parent alone. The list shows a part of the results. The calls rarely recur for the same compound in another form.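 Kinases were expressed as nanoluciferase fusions in K562 cells and luminescence was read every 4 h between 2 and 18 h as percent of control, DMSO set to 100% and a positive control to 0%. A time point counts as decreased when the signal drops significantly (2 sigma). The hit call is the authors' own, does not follow from the count of time points alone, and its rule is not shown.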
Target: PTK2 (UniProt Q05397)
Assay: kinase-Nluc reporter destabilization hit call (1 = scored as downregulated) (binary); higher = compound decreases kinase abundance
Details: K562; 2-18 h

Chains of the proteins cited; added tags and fusions are not shown.
UniProt Q05397, whole entry, looked up: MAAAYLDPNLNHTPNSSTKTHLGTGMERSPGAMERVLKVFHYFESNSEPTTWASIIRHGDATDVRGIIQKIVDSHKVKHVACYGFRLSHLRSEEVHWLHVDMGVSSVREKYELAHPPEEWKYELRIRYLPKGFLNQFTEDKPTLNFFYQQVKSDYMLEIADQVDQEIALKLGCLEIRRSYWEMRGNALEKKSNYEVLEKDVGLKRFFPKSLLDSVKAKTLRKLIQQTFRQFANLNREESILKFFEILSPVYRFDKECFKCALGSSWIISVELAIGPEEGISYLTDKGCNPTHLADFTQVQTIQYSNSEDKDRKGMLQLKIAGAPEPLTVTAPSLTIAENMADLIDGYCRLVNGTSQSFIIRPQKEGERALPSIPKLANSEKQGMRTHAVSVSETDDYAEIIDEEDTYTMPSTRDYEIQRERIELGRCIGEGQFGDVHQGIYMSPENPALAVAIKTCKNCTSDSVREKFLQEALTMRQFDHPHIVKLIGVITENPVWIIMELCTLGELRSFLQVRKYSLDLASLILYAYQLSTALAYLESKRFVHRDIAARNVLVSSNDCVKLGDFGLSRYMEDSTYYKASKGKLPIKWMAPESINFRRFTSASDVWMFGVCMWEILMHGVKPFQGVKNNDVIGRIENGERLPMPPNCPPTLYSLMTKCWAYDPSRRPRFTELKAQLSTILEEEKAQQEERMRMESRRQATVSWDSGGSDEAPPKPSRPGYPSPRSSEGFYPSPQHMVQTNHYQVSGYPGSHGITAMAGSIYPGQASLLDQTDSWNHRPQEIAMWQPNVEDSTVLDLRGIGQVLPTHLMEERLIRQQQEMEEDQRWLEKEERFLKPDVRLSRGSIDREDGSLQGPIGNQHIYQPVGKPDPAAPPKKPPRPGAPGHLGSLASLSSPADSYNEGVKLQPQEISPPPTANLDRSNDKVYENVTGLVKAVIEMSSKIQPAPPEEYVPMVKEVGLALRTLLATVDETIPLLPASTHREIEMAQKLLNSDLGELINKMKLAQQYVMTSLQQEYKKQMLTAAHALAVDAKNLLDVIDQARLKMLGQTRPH

SMILES | kinase-Nluc reporter destabilization hit call
C=CC(=O)N1CCC[C@@H](n2c(=O)n(-c3ccc(Oc4ccccc4)cc3)c3c(N)nccc32)C1 [Tolebrutinib] (10 µM) | inactive: 0
C[C@]1(O)C[C@@](N)(c2ccc(-c3nc4n(c3-c3ccccc3)COc3ccncc3-4)cc2)C1 [TAS-117 (hydrochloride)] (10 µM) | inactive: 0
CCOC(=O)C1=C[C@]2(CC)CCCN3CCc4c(n1c1ccccc41)[C@@H]32 [Vinpocetine] (10 µM) | inactive: 0
CC(C)(C)NS(=O)(=O)c1cncc(-c2cc(F)c3nc(N)nn3c2)c1 (10 µM) | inactive: 0
CC(C)(C)c1ccc(C(=O)Nc2cn3cc(-n4ccnc4)ccc3n2)cc1 (10 µM) | inactive: 0
Cc1nc(NC(=O)N2CCC[C@H]2C(N)=O)sc1-c1csc(C(C)(C)C)n1 (10 µM) | inactive: 0
N#Cc1cn([C@@H]2O[C@H](CO)[C@@H](O)[C@H]2O)c2nc[nH]c(=O)c12 [Jaspamycin] (10 µM) | inactive: 0
Cc1ccc(-c2csc(Cn3nc(CC4OCCCO4)c4ccccc4c3=O)n2)cc1 (10 µM) | inactive: 0
CNC(=O)c1c(C)oc2cc(Oc3ncnc4cc(OC)c(OC)cc34)ccc12 [Fruquintinib] (10 µM) | inactive: 0
O=S(=O)(N=Cc1c(O)ccc2ccccc12)c1cccs1 (10 µM) | inactive: 0
NC(=O)c1cccc2c(N[C@H](CN3CCC3)c3ccc(Cl)c(C(F)(F)F)c3)ncnc12 (10 µM) | inactive: 0
CN1CCC(c2ccccc2CC(C)(C)Nc2nc(N3CCOCC3)nc(-n3c(S(C)(=O)=O)nc4ccccc43)n2)CC1 (10 µM) | inactive: 0
O=c1ccc2cc(O)c(O)cc2o1 [Esculetin] (10 µM) | inactive: 0
O=C(Nc1nc2cccc(-c3ccc(CN4CCS(=O)(=O)CC4)cc3)n2n1)C1CC1 [Filgotinib] (2.5 µM) | inactive: 0
CC(C)(O)c1cc2nc(-c3cnc(N)nc3)nc(N3CCOCC3)c2s1 (2.5 µM) | inactive: 0
Cn1cc(-c2ccc3ncc(Cc4ccc5ncccc5c4)n3n2)cn1 (10 µM) | inactive: 0
CC(=O)c1cc(O)ccc1O [2,5-Dihydroxyacetophenone] (10 µM) | inactive: 0

Already shown: 2 of the compounds above.
SMILES | kinase-Nluc reporter destabilization hit call
CC(C)(C)NS(=O)(=O)c1cncc(-c2cc(F)c3nc(N)nn3c2)c1 (10 µM) | inactive: 0
CC(C)(C)c1ccc(C(=O)Nc2cn3cc(-n4ccnc4)ccc3n2)cc1 (10 µM) | inactive: 0

Next structures.

SMILES | kinase-Nluc reporter destabilization hit call
COc1ccc(COc2cc3oc(=O)c4cc(C(C)O)ccc4c3cc2OC)cc1 (stereo not drawn) [Palomid 529] (2.5 µM) | inactive: 0
O=C(CC(c1ccccc1)C(C(=O)O)C(=O)O)c1ccc(C(F)(F)F)cc1 (stereo not drawn) (10 µM) | inactive: 0
CC(C)[C@H](CO)Nc1nc(Nc2ccc(C(=O)O)c(Cl)c2)c2ncn(C(C)C)c2n1 [Purvalanol B] (10 µM) | inactive: 0
COc1cc2nccc(Oc3ccc(NC(=O)Nc4ccc(F)cc4F)c(F)c3)c2cc1OC (10 µM) | active: 1
N#C/C(=C\c1ccc[nH]1)c1ccc(Cl)c(Cl)c1 (2.5 µM) | inactive: 0
O=c1cc(-c2ccc(O)cc2)oc2cc(O)c(O)c(O)c12 [Scutellarein] (10 µM) | inactive: 0
CC(C)n1nc(C#Cc2ccccc2)c2c(N)ncnc21 (10 µM) | inactive: 0
O=C(N=c1sccn1Cc1ccccc1)c1c[nH]c2ncccc12 (10 µM) | inactive: 0
CC(C)=C/C=C1\O[C@@H]2CC(C)=CC(=O)[C@@H]2[C@]1(C)O [Bisabolangelone] (10 µM) | inactive: 0
COc1ccc(C2CC(c3ccc(Cl)cc3)=NN2c2nc(-c3ccncc3)cs2)cc1 (stereo not drawn) [mTOR inhibitor-8] (10 µM) | inactive: 0
Cc1cc(F)c(Nc2ncnc3cc(OCc4ccccc4)ccc23)cc1O (10 µM) | inactive: 0
CNCCOc1ccccc1C(C)(C)Nc1nccn(-c2cc(C(=O)NC3CC3)ccc2C)c1=O [p38α inhibitor 2] (10 µM) | inactive: 0
CCn1c(-c2nonc2N)nc2c(C#CCO)ncc(OCCCN)c21 [AKT Kinase Inhibitor] (10 µM) | inactive: 0
NC(=O)c1nc(-c2c(F)cccc2Cl)oc1Nc1ccc(C(=O)N2CCOCC2)cc1 (10 µM) | inactive: 0
O=C(NCc1cccc(O)c1)c1cc2cc(F)ccc2[nH]1 (10 µM) | inactive: 0
Cc1nc(Nc2ncc(C(=O)Nc3c(C)cccc3Cl)s2)cc(N2CCN(C(=O)CCCCCCC(=O)N[C@H](C(=O)N3C[C@H](O)C[C@H]3C(=O)NCc3ccc(-c4scnc4C)cc3)C(C)(C)C)CC2)n1 (2.5 µM) | inactive: 0

— the supplement of paper PMC12823440, “Inhibitors supercharge kinase turnover through native proteolytic circuits” (Nature, 2025)
